From article doi:10.1101/2023.10.27.564116
Results are given in words; binding and its absence hold for the method and conditions named. Binding seen in cells or lysates may run through a third protein. A yes stands for co-enrichment or nearness to the bait. Other partners may have been found.

Protein sequences, listed by entry. Tags and fused reporters are not part of them. Lines headed by an entry give the natural chain unless they say otherwise; changes in a name come on top.
UniProt Q7ZYC1: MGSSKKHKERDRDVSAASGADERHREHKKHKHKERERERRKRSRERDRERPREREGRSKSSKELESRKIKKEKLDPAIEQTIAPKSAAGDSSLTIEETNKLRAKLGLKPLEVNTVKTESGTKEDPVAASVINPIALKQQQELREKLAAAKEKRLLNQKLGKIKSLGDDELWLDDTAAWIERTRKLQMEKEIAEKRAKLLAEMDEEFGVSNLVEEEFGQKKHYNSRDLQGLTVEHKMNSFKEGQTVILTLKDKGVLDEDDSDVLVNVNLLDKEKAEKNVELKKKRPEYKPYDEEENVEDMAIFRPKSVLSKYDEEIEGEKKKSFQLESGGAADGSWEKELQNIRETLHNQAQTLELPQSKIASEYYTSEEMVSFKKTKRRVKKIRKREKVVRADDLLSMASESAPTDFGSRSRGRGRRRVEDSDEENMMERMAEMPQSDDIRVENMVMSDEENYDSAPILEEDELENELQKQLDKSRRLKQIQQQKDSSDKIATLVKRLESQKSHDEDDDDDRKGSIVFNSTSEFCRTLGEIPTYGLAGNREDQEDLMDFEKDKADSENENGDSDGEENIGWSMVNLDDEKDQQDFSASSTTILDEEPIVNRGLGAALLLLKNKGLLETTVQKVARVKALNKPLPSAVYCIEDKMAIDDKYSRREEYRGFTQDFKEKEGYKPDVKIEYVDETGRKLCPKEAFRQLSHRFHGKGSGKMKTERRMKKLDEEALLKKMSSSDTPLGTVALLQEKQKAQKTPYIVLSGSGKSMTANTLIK
UniProt Q498G2: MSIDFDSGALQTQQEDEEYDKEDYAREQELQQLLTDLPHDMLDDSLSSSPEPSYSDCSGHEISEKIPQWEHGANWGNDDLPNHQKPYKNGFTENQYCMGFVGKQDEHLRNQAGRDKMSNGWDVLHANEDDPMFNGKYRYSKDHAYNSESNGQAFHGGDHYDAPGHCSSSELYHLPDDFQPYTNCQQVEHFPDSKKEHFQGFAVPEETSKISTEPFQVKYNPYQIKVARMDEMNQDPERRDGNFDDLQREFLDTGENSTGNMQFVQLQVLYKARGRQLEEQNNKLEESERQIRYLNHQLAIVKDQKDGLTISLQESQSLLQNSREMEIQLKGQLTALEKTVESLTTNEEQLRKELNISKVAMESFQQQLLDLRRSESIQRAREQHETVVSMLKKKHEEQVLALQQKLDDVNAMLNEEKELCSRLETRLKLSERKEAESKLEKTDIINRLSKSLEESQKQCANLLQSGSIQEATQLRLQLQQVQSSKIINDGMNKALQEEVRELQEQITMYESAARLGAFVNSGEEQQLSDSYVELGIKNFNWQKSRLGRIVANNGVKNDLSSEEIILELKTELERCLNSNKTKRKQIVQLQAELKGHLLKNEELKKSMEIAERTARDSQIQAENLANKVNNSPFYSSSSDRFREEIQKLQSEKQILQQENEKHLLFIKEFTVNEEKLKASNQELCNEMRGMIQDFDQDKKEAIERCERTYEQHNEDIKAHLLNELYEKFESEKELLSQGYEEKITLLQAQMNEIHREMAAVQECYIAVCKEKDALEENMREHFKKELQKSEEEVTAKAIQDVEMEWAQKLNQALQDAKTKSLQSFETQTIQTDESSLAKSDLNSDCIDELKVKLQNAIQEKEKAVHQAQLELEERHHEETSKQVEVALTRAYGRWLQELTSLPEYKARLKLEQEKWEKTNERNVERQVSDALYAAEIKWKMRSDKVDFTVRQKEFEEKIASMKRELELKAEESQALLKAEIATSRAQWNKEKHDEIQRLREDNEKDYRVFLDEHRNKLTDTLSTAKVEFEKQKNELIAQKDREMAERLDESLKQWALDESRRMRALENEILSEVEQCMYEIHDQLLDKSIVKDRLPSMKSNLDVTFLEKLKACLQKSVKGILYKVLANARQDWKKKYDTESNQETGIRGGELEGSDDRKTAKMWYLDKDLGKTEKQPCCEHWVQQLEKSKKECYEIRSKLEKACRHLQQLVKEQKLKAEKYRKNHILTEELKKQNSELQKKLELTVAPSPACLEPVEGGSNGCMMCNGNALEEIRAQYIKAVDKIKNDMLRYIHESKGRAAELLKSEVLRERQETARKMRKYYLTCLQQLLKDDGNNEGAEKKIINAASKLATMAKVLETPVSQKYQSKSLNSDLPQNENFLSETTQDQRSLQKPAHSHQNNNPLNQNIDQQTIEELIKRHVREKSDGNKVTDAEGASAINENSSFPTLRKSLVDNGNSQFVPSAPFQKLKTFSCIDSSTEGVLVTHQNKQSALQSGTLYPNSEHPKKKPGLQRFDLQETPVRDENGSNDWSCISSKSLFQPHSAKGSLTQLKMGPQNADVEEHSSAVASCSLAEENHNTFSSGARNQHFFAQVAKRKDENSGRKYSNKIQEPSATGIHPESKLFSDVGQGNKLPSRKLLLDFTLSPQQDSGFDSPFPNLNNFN
UniProt P70032: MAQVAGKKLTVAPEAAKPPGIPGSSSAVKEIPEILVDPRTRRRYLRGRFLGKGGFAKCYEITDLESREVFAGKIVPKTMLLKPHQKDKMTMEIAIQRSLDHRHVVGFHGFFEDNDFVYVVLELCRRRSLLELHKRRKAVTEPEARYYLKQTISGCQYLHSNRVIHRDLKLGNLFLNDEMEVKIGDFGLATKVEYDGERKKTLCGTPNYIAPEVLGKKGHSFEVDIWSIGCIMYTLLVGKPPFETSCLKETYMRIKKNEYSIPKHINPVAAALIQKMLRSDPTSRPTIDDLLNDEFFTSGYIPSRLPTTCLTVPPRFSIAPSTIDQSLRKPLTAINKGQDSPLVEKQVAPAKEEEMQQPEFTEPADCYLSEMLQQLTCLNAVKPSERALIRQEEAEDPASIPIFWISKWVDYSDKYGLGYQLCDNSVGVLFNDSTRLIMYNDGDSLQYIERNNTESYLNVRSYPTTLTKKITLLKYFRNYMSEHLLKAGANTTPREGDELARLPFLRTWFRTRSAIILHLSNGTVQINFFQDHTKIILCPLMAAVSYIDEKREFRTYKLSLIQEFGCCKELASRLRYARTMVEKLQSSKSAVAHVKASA
UniProt P09406: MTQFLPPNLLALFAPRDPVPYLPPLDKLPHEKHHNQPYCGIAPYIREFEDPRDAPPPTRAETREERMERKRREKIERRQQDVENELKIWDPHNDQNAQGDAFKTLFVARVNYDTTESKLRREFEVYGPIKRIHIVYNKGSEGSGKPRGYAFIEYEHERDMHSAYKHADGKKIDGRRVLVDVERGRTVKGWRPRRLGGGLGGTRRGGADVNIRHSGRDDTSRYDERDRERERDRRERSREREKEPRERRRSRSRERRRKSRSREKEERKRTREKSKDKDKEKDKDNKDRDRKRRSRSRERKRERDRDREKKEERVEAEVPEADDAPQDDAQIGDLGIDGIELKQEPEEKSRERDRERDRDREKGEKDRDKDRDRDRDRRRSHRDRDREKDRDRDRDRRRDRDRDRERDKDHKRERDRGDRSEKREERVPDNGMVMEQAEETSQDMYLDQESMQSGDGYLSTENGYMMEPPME
UniProt P45429: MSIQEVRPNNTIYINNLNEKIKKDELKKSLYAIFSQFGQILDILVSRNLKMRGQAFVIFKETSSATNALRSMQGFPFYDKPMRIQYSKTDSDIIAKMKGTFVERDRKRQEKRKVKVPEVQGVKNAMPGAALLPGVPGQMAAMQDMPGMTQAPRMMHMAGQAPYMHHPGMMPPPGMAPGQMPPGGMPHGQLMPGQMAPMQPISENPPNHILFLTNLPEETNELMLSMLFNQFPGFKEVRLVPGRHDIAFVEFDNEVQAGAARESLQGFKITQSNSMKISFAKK

Target: Xenopus SART1, endogenous (Xenopus laevis (endogenous in egg extract)) (UniProt Q7ZYC1)
Assay: affinity purification with mass spectrometry

binding	Molecule
binds	Cep152 (from UniProt Q498G2 1-1663)
binds	Plk1 (from UniProt P70032 1-598) (enzyme)
binds	SNRNP70 (from UniProt P09406 1-471)
binds	APC (from UniProt P70039 1-2829)
binds	SNRPA (from UniProt P45429 1-282)
binds	POC5 (protein, UniProt Q6DFB7 1-572) MSSDEEYRESPILPKDSDHGSSVSSDLQDEYDELLRYAVVTPRFGPHFPEQNQLFTEQIKSDRFSSPKDPVQEQSLARNYSEENIPECSATSTSQRRSPPTANEEERAMSEKKSFLSGLEAFSPLHSEDLSLGGSTSSGSQVQQVRVKELPVPAENMDKVEDVLDLWSGTLKTNVMAELSKWRLTVIEQHKLEIKNQNEKHAEQISQLSSQIDKLQDHLQTYETSIQRKDEVISNLTHALEKHKEKMELMRTFTHWRLQLTEAREEDYARSLADRHYRNTLMKNAWKAWHSVIQSNWKDKIEQACRARAEEVCIELSNDYESKLTQLNSALGEARAEVQRLLAERGQFEGSMKKAFMRGVCALNMEAMSMFQGRESRMEYDPPPRREERDPSPSVTFQNPPVTSTHTSSTQHELQSALHSPVTCEPNYIHAFGPSTVSQSKEEAGAPAVISAATSASSVLSTQKLPMPRVVTSCQQKAGKIITARISARPDVSQRSSKIGSNITSMAVSPPISSIVVEKHHPVTQQTISQAAAAKYPRSALQSANSVGGRSTGQSGRVSQSHAGIHSIKVVD
binds	Cep97 (protein, UniProt Q6GPJ8 1-807) MAVAHLACDSQGSVVDLSGQGLQKLSPTLPFGNDTQTLILDKNQIIKLEHVEKCRNLVQLSVANNRLVRMMGVAKLIHLRVLNLPHNSIGYVEGLKDLVHLEWINLAGNNLKIIDQINSSTSLQHLDLSDNNISQIGDLSKLKSLKTLLLHGNNIASLRAASACLPQSLTILSLAENEIRDLNEVAFLAGLVDLEQLSIMNNPCVMATPSIPGFDYRPFIVSWCLNLKVLDGYVVSQKESLKAEWLYSQGKGRSYRLGQHIPLVQYLATVCPLTSAHGLQTEEDAKLDKILSKQRLHQKQLLHQTRSDGYLTSSTPNKRLPLSTEHHSPTHVLQTEPTVQVNNWLRSSSSEDHSYAVRNICSSPFGPPHYSSLYMEDIQTDEDKLNCSLLSSESTFMPVAPGLSPVSPTVELRVPAIKADLPVNETVIEFNKDHTELPPSETPEKPKLIPGLSAMQDDKSCCVYPVIKDENVTENIINCETAVSMESTQTSNGPTCHNLIMNCKQASVLDQDVNHINKISKAATKLQSCWRGFYARKYNPKVKDVCYEIRLSRMQEHIVFLTEEVIRLRKEKEEDRIQRILQGEAVRYLWEQVQAIQQWQNTVKLQTANSSENDLPSASNSKHANPALEELPSSPEKLNRKASPDIPDSGFHSVILNHCTMGNTEKNSSEESEYSQPSLDTGRHYNDKVPDSPADQDLTREEQSQSSKDSFTSEQDSSLLQQYLRSVEQLDETADNTSYSERTEESRPEITTCSDNSDLSCSISHFLPENSKQENIDIHSNLPSIDDGHNTPIPCDSSLLVPQPDLV
binds	DDX42 (protein, UniProt Q7ZY47 1-947) MNWNKGGSGNKRGFGFGGFAISTGKKEEPKLPQVSHSAFQSASSKYGSTSNQLPSFYKIGSKRANFDEENSYFDDEEEDSSNVDLPYIPAENSPTRQQLRSKTDSDSEEDPLEAFMAEVEDQAAKDMRKLEERDKEKANARGIRDDIEEEDDQEAYFRYMAENPTAGLVPEEEEDNLEYDSDGNPIAPTTKRIIDPLPPIDHTEIEYPPFEKNFYEEHEAITSQTPQQITELRHKLNLRVSGAAPPRLCSSFAHFGFDEQLLHQIRKSEYTQPTPIQCQGIPVALSGRDMIGIAKTGSGKTAAFIWPILVHIMDQKELQPADGPIAVIVCPTRELCQQIHSECKRFGKAYNLRSVAVYGGGSMWEQAKALQEGAEIVVCTPGRLIDHVKKKATNLQRVTYLVFDEADRMFDMGFEYQVRSIANHVRPDRQTLLFSATFRKKIEKLARDILVDPIRVVQGDIGEANEDITQVVEILPSGPEKWTWLTRRLVEFTSTGSVLVFVTKKANAEELAANLRQDDHPLGLLHGDMDQSERNKVISDFKKKSIPVLVATDVAARGLDIPSIKTVVNYDVARDIDTHTHRIGRTGRAGEKGVAYTLLTSKESNFAGDLVRNLEGANQYVSKELLDLAMQNSWFRKSRFKAGKGKKLNIGGGGLGYRERPGLGAESSEHGTGGNVMSNYEAFKPSGGAMGDRLSAMKSAFQSQYKNHFVAASASTQKTGTSSINSGAWTSAGSLSSVPSAHPPSGKLPAEAAPPPVHTAMLGFTSSGTLSSIPTGYPANISSASYPAATLFGARDGASAGTESGGRERHSDSKGRHGDSHRPSDREGYRHGDGHRHSSSSRHGERNGGEGRRESSRDGRRDSSRDGESRRDGSRDGGEGRRESSRDGEGRRESSRDGDGRRESSGDGRREVVGDDGDSRKEGTREAKTDTFAIPVPPKRKKSRWDS
binds	SF3B1 (protein, UniProt O57683 1-1307) MAKVAKTHEDIEAQIREIQGKKAALDEEEGVGLDSTGYFDQEIYGGSDSRFTGYVTSIAANEQEDDDDDVSSATFEQKKPGYHAPVALLNDIPQSTEQYDPFAEHRPQKIANREDEYKQQRRKMIISPERLDPFADGGKTPDPKLNARTFKDVMQEQYLTKEEREIRQQIAEKAKSGDLKVVNGSSASSAAQPPSKRKRRWDQTGDQTPGSTPKKLSSWDQAEVTPGHTPSSLRWDETPGRAKGNETPGATPGSKIWDPTPSHTPAGVATPGRGDTPGHVTPGHSGATSSARKNRWDETPKTERDTPGHGSGWAETPRTDRGGDSIGETPTPGASKRKSRWDETPASQMGGSTPVLTPGKTPIGTPAMNMATPTPGHIMSMTPEQLQAWRWEREIDERNRPLSDEELDAMFPEGYKVLPPPAGYVPIRTPARKLTATPTPLGGLTGFHMPTEDRSMKSVSDQPSGNLPFLKPDDIQYFDKLLVDVDESTLSPEEQKERKIMKLLLKIKNGTPPMRKAALRQITDKAREFGAGPLFNQILPLLMSPTLEDQERHLLVKVIDRILYKLDDLVRPYVHKILVVIEPLLIDEDYYARVEGREIISNLAKAAGLATMISTMRPDIDNMDEYVRNTTARAFAVVASALGIPSLLPFLKAVCKSKKSWQARHTGIKIVQQIAILMGCAILPHLRSLVEIIEHGLVDEQQKVRTISALAIAALAEAATPYGIESFDSVLKPLWKGIRQHRGKGLAAFLKAIGYLIPLMDAEYANYYTREVMLILIREFQSPDEEMKKIVLKVVKQCCGTDGVEANYIKTEILPPFFKHFWQHRMALDRRNYRQLVDTTVELANKVGAAEIISRIVDDLKDEAEQYRKMVMETIEKIMGNLGAADIDHKLEEQLIDGILYAFQEQTTEDSVMLNGFGTVVNALGKRVKPYLPQICGTVLWRLNNKSAKVRQQAADLISRTAVVMKTCQEEKLMGHLGVVLYEYLGEEYPEVLGSILGALKAIVNVIGMHKMTPPIKDLLPRLTPILKNRHEKVQENCIDLVGRIADRGAEYVSAREWMRICFELLELLKAHKKAIRRATVNTFGYIAKAIGPHDVLATLLNNLKVQERQNRVCTTVAIAIVAETCSPFTVLPALMNEYRVPELNVQNGVLKSLSFLFEYIGEMGKDYIYAVTPLLEDALMDRDLVHRQTASAVVQHMSLGVYGFGCEDSLNHLLNYVWPNVFETSPHVIQAVMGALEGLRVAIGPCRMVQYCLQGLFHPARKVRDVYWKIYNSIYIGSQDALIAHYPRIYNDEKNTYIRYELDYTL
binds	Cep44 (protein, UniProt A2RVA7 1-384) MATGDVKGCIRKLEQRLRTLNYPRDVDYTGLIKGDPSASLPIISYTFTCYSTSIAEILISFGIELTTKSDLRFIEAVYKVLRDVFNYKPILTKQQFLQCAFSERKIQIICDIVDCVVKKHKEITGQNKVKSQLVKKVVSAKDQCEVFYPEDVSVQPSVKTTQKKPLVERHAGSEFLLPTKCYSSALVEDIEEEEPTSDSEGGSHLEHEMESPFETAETTPNSEQIELLRKQLAECQEKLQRLDCVEQRLQSLETSMKGKIIIDETDWNNLLSRVLLLETEGLLQSKKTDFSVPSEFACISEQRTSSRMTNEICSNLKTKADIPESHHQSSGYSFVLSADTSPIAIDINYSSLTEDSNETTKQRMERITKMMEETSKLLKCSNNT
